Data as given in PubChem BioAssay AID1053208 (Peter MacCallum Cancer Centre, 2014).
This is an unselected part of about 17,000 reagents tested. 788 of them (4.7%) count as active. 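Calls rest on z-score classes alone; an extra cut-off of viability at most 70% of control was not applied to them.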 Unmarked entries are inactive. Further read-outs or replicates are left out here.

- Aim: 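Genes whose silencing cuts survival of bone tumour cells only with doxorubicin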 (primary screen)
- System: mouse osteosarcoma cells, early-passage culture from an engineered mouse model of fibroblastic bone tumour
- Reagents: siRNA pool against mouse genes, 40 nM
- Timing: about 120 h (48 h before drug, then 72 h with drug)
- Treatment: doxorubicin 100 nM for 72 h, roughly 30-40% inhibitory dose
- Detection: 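Luminescent ATP signal taken as viability with or without 100 nM doxorubicin for 72 h; mean of two wells set against non-targeting siRNA and turned into robust z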
- Reading the numbers: viability z-score with doxorubicin: higher = more viable cells under doxorubicin; viability z-score without drug: higher = more viable cells with knock-down alone
- Hit rule: 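a pool counts as active when its viability z-score with doxorubicin is -2 or below and its z-score without drug lies between -2 and 2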

How did the screen score Ly86 (GeneID 17084)?
combined z-score class: no change with or without drug; viability z-score with doxorubicin: -1.35; viability z-score without drug: -1.35

What did the screen give for Stxbp1 (GeneID 20910)?
combined z-score class: no change with or without drug; viability z-score with doxorubicin: -0.45; viability z-score without drug: -0.67

With Tubb3 (GeneID 22152), what does the deposit list?
combined z-score class: no change with or without drug; viability z-score with doxorubicin: 0.67; viability z-score without drug: 0

What did the screen give for Eno1 (GeneID 13806)?
combined z-score class: no change with or without drug; viability z-score with doxorubicin: -1.8; viability z-score without drug: 1.52

How did the screen score Rab8a (GeneID 17274)?
combined z-score class: no change with or without drug; viability z-score with doxorubicin: 1.12; viability z-score without drug: 0

For Kat6b (GeneID 54169), what was measured?
combined z-score class: no change with or without drug; viability z-score with doxorubicin: 0.79; viability z-score without drug: -0.34

With Onecut3 (GeneID 246086), what does the deposit list?
combined z-score class: no change with or without drug; viability z-score with doxorubicin: -1.57; viability z-score without drug: -0.84

How did the screen score Rbm5 (GeneID 83486)?
combined z-score class: no change with or without drug; viability z-score with doxorubicin: 0.45; viability z-score without drug: 0.84

Which result is listed for Prmt1 (GeneID 15469)?
combined z-score class: no change with or without drug; viability z-score with doxorubicin: -0.34; viability z-score without drug: -0.17

For Acot4 (GeneID 171282), what does the deposit list?
combined z-score class: high cell count with doxorubicin only; viability z-score with doxorubicin: 2.36; viability z-score without drug: -0.17

With Nrn1l (GeneID 234700), how do the results read?
combined z-score class: no change with or without drug; viability z-score with doxorubicin: 1.69; viability z-score without drug: 0.84

What did the screen give for Tmem254 (GeneID 66039)?
combined z-score class: no change with or without drug; viability z-score with doxorubicin: 0.45; viability z-score without drug: 1.85

Which result is listed for Tlcd1 (GeneID 68385)?
combined z-score class: no change with or without drug; viability z-score with doxorubicin: 1.12; viability z-score without drug: -0.51

With Cacng2 (GeneID 12300), what does the deposit list?
combined z-score class: no change with or without drug; viability z-score with doxorubicin: 1.24; viability z-score without drug: 1.69

What is on record for Ntm (GeneID 235106)?
combined z-score class: no change with or without drug; viability z-score with doxorubicin: 0.45; viability z-score without drug: 0

For Ap4m1 (GeneID 11781), what was measured?
combined z-score class: no change with or without drug; viability z-score with doxorubicin: 0.9; viability z-score without drug: 1.85

What is on record for 2810032G03Rik (GeneID 72669)?
combined z-score class: no change with or without drug; viability z-score with doxorubicin: 1.12; viability z-score without drug: -0.84

How did the screen score Large1 (GeneID 16795)?
combined z-score class: no change with or without drug; viability z-score with doxorubicin: 0.79; viability z-score without drug: 0.17

With Coq8a (GeneID 67426), what does the deposit list?
combined z-score class: no change with or without drug; viability z-score with doxorubicin: -0.11; viability z-score without drug: -0.51

How did the screen score Pias2 (GeneID 17344)?
combined z-score class: no change with or without drug; viability z-score with doxorubicin: 0.34; viability z-score without drug: -0.51

How did the screen score Ecel1 (GeneID 13599)?
combined z-score class: no change with or without drug; viability z-score with doxorubicin: -0.45; viability z-score without drug: -1.52

For Dazap2 (GeneID 23994), how do the results read?
combined z-score class: no change with or without drug; viability z-score with doxorubicin: 0.45; viability z-score without drug: 0.34

What is on record for St8sia2 (GeneID 20450)?
combined z-score class: no change with or without drug; viability z-score with doxorubicin: -1.69; viability z-score without drug: -1.01

With Ctps2 (GeneID 55936), how do the results read?
combined z-score class: no change with or without drug; viability z-score with doxorubicin: 1.01; viability z-score without drug: 0.67

How did the screen score Spa17 (GeneID 20686)?
combined z-score class: high cell count without drug only; viability z-score with doxorubicin: 1.46; viability z-score without drug: 2.53

Which result is listed for Gzmk (GeneID 14945)?
combined z-score class: no change with or without drug; viability z-score with doxorubicin: 0.11; viability z-score without drug: 1.18

With Asic2 (GeneID 11418), what was measured?
combined z-score class: no change with or without drug; viability z-score with doxorubicin: 0.67; viability z-score without drug: 0.17

Which result is listed for Slc41a1 (GeneID 98396)?
combined z-score class: low cell count with doxorubicin only (active); viability z-score with doxorubicin: -2.7; viability z-score without drug: -0.51

For Ets1 (GeneID 23871), how do the results read?
combined z-score class: no change with or without drug; viability z-score with doxorubicin: 0.45; viability z-score without drug: -0.84

With Itgb1bp1 (GeneID 16413), how do the results read?
combined z-score class: no change with or without drug; viability z-score with doxorubicin: 0.45; viability z-score without drug: 1.18

For Prpf38b (GeneID 66921), how do the results read?
combined z-score class: no change with or without drug; viability z-score with doxorubicin: 0.22; viability z-score without drug: 0.51

With Cyp2s1 (GeneID 74134), how do the results read?
combined z-score class: no change with or without drug; viability z-score with doxorubicin: -0.67; viability z-score without drug: 0.34

With Amz2 (GeneID 13929), what was measured?
combined z-score class: no change with or without drug; viability z-score with doxorubicin: 0.11; viability z-score without drug: 0

How did the screen score Polr1has (GeneID 76416)?
combined z-score class: no change with or without drug; viability z-score with doxorubicin: 0.45; viability z-score without drug: 0.84

What did the screen give for Cidea (GeneID 12683)?
combined z-score class: no change with or without drug; viability z-score with doxorubicin: -0.9; viability z-score without drug: -0.51

With Rtn4 (GeneID 68585), how do the results read?
combined z-score class: high cell count with doxorubicin only; viability z-score with doxorubicin: 2.02; viability z-score without drug: 1.85

Copied from the list.
Asic2 (GeneID 11418), viability z-score with doxorubicin → 0.67
Entry of Prmt1 (GeneID 15469) in “viability z-score with doxorubicin”: -0.34
Prpf38b (GeneID 66921), viability z-score without drug: 0.51
Result of 2810032G03Rik (GeneID 72669) in “combined z-score class”: no change with or without drug
